Results on five molecules are retold here after PMC4385835.

Chains of the proteins cited; added tags and fusions are not shown. Lines headed by an entry give the natural chain unless they say otherwise; changes in a name come on top.
UniProt P08253: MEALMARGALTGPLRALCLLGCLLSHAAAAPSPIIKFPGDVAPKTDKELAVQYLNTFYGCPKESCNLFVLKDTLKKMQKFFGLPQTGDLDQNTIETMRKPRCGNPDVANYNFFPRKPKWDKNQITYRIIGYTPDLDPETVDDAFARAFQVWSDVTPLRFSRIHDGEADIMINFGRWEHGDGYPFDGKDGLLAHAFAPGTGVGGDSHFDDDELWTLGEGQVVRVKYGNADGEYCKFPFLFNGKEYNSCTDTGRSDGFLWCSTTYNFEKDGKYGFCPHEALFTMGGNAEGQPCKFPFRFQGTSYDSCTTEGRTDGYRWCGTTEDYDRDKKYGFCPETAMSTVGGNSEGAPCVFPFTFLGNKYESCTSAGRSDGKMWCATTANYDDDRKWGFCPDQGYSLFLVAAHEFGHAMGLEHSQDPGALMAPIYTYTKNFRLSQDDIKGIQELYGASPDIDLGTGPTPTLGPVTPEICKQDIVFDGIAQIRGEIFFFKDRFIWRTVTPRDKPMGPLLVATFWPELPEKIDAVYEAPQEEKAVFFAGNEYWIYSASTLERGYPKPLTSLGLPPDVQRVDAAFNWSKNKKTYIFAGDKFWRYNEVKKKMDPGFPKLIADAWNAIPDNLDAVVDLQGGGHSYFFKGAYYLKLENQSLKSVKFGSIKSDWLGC
UniProt P14780: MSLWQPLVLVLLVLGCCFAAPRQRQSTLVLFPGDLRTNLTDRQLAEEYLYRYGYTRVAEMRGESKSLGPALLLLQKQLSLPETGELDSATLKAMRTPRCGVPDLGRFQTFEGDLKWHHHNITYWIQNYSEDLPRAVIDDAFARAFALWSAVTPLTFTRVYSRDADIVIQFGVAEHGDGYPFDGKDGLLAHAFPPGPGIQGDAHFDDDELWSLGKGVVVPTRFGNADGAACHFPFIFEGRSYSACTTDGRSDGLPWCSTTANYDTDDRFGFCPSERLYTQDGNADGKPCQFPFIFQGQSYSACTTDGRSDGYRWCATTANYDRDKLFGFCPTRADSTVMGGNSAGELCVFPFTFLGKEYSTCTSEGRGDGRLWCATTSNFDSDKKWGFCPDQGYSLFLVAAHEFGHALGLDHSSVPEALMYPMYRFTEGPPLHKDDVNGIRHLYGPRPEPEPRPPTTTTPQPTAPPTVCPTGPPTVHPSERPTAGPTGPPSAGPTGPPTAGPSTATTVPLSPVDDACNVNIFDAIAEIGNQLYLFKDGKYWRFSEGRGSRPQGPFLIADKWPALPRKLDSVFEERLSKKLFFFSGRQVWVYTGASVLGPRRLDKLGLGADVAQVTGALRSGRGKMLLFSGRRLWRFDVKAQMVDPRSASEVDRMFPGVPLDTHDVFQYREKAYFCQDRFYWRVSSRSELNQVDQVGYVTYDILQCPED
UniProt P78536: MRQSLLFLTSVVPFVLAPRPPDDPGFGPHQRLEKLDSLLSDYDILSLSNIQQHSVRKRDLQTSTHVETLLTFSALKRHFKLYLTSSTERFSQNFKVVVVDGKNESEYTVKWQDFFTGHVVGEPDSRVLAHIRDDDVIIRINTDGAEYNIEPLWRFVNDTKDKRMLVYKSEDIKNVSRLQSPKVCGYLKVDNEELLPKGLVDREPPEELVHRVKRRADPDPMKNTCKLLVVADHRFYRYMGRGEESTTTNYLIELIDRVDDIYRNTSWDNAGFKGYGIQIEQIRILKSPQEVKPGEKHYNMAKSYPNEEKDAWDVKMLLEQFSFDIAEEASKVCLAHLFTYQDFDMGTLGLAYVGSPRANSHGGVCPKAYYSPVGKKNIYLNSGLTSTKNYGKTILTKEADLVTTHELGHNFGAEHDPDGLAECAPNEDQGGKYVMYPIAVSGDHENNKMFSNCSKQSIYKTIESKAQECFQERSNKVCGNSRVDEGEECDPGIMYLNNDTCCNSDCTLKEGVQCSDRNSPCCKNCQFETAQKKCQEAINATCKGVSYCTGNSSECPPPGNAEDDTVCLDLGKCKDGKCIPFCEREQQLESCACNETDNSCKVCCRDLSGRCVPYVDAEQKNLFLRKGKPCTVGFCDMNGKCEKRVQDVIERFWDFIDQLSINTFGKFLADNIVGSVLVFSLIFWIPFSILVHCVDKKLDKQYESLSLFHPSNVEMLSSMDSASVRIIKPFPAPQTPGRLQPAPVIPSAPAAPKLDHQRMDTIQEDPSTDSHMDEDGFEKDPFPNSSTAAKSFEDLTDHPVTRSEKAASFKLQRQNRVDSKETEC

Test [1] deals with T1, claudin-7 (human (endogenous in HT29 and SW948)) (UniProt O95471).
T1 sequence: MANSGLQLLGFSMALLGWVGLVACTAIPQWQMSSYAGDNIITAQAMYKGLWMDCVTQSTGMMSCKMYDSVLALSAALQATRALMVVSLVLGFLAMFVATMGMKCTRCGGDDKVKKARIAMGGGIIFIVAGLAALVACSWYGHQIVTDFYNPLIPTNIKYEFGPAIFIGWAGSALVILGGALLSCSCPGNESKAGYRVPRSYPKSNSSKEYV
The test can be described thus: co-IP; lysates of HT29 and SW948 wt and cld7 knock-down cells (HEPES buffer, 1% Lubrol or 1% TritonX-100, 4°C) precipitated with control IgG, anti-EpC, anti-cld7 or anti-Tspan8 and ProteinG-Sepharose; Western blot; precipitates also separated by sucrose density gradient (Fig.1E,1F,4D).

The target of test [2] is CD49c (human (endogenous in HT29)). Put plainly: co-IP; lysates of PMA-treated HT29 wt and holoclone-derived cells precipitated with control IgG, anti-α3 or anti-β1 and ProteinG-Sepharose; blotted with anti-cld7 and anti-p-cld7 (Fig.3F).

Results are given in words; binding and its absence hold for the method and conditions named. Binding seen in cells or lysates may run through a third protein. Binding calls can cover weak binding; strength is not graded here.

For the molecule MMP2 (from UniProt P08253) (enzyme), in test [1], the binding entry is given as “binds weakly”. MMP9 (from UniProt P14780) (enzyme): the binding result in test [1] is reported as “binds weakly”.

For the molecule “TACE (TNFα converting enzyme) (from UniProt P78536)”, the binding result in test [1] is “binds”.

B1: claudin-7 (protein, UniProt O95471 1-211)
chain: MANSGLQLLGFSMALLGWVGLVACTAIPQWQMSSYAGDNIITAQAMYKGLWMDCVTQSTGMMSCKMYDSVLALSAALQATRALMVVSLVLGFLAMFVATMGMKCTRCGGDDKVKKARIAMGGGIIFIVAGLAALVACSWYGHQIVTDFYNPLIPTNIKYEFGPAIFIGWAGSALVILGGALLSCSCPGNESKAGYRVPRSYPKSNSSKEYV
On to B1, for which the binding result in test [2] is “binds”.

B2: phosphorylated claudin-7 (protein, UniProt O95471 1-211)
chain: MANSGLQLLGFSMALLGWVGLVACTAIPQWQMSSYAGDNIITAQAMYKGLWMDCVTQSTGMMSCKMYDSVLALSAALQATRALMVVSLVLGFLAMFVATMGMKCTRCGGDDKVKKARIAMGGGIIFIVAGLAALVACSWYGHQIVTDFYNPLIPTNIKYEFGPAIFIGWAGSALVILGGALLSCSCPGNESKAGYRVPRSYPKSNSSKEYV
modifications: phosphorylated (detected with anti-p-cld7; site not given)
Regarding B2, in test [2], the binding entry was “binds”.
